# Reference: PubChem BioAssay AID587 (National Center for Advancing Translational Sciences (NCATS), 2007)
# Out of some 59,000 compounds screened, about 35 (0.06%) were called active. The shares of active, inactive and inconclusive entries below differ from those in the screen. Rule as the data show it: active = max dye-equivalent concentration above about 10 nM; inconclusive = between about 1.1 nM and that limit; inactive = weaker than that.
# Test: qHTS Assay for Spectroscopic Profiling in Texas Red Spectral Region
# Conditions: Compound fluorescence, Texas Red channel, 547/618 nm; active compounds read high
# In short: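 Spectral interference profiling: each compound concentration's relative fluorescence, read with a 547 nm excitation and 618 nm emission filter pair, was normalized to a per-plate Texas Red standard curve.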
row,SMILES,max dye-equivalent concentration
1,COCCCNC(=O)C(C#N)c1nc2ccccc2nc1N1CCCC1 (stereo not drawn),inactive
2,O=c1/c(=C/c2ccc(CNS(=O)(=O)c3ccccc3)o2)sc2n1CCN=2,inconclusive: 1.6 nM
3,COC(=O)c1cc(=O)n2c(-c3ccccc3)csc2n1,inconclusive: 1.5 nM
4,CC(=O)OC(C(=O)Nc1ccccc1)C(C)S(=O)(=O)c1ccccc1 (stereo not drawn),inconclusive: 1.5 nM
5,CCn1c(=O)cc(SCC(=O)NCCCN2CCN(c3ccc(F)cc3)CC2)c2ccccc21,inconclusive: 1.5 nM
6,CN(CC(=O)N1CCCc2c1c(=O)oc1ccc(O)cc21)Cc1ccccc1,inconclusive: 1.4 nM
7,CSc1[nH]c(=O)c(C(=O)O)cc1C#N,inconclusive: 2.5 nM
8,Cc1cccc(OCCn2c(NC(=O)c3ccco3)nc3ccccc32)c1,inconclusive: 1.3 nM
9,COC(=O)CCN(C(=O)c1ccc2c(c1)OCO2)c1ccccn1,inactive
10,CCOc1ccccc1NC(=O)CC1NCCNC1=O (stereo not drawn),inconclusive: 1.7 nM
11,CC1(C)CC(=O)C2=C(C1)OC(N)=C(C#N)C21CCN(Cc2ccccc2)CC1,inactive
12,COc1ccc(CCNS(=O)(=O)c2ccc(S(=O)(=O)N3CCCC3)cc2)cc1OC,inconclusive: 1.3 nM
13,COC(=O)c1sc(=S)sc1C(=O)OC,inconclusive: 1.2 nM
14,COCCOC(=O)C1=C(C)NC(C)=C(C(=O)OC(C)C)[C@@H]1c1cccc([N+](=O)[O-])c1,inconclusive: 1.4 nM
15,CCn1c(SCC(N)=O)nnc1-c1ccco1,inconclusive: 1.2 nM
16,COc1ccc(-n2c(=O)c(-c3cccs3)nc3cnc(Nc4cccc(OC)c4)nc32)cc1,inactive
17,O=C(O)c1cc(-c2cccnc2)nn1-c1ccccn1,inconclusive: 1.5 nM
18,O=C(CSc1nc2ccccc2c(=O)n1-c1ccccc1)NCc1ccco1,inconclusive: 1.2 nM
19,CC(C)C1=C2CCCCC2NC(=O)N1 (stereo not drawn),inconclusive: 1.1 nM
20,CC1Cc2ccccc2N1S(=O)(=O)c1cccs1 (stereo not drawn),inconclusive: 4.9 nM
21,CCOP(=O)(c1c(F)c(F)c(F)c(F)c1F)C1(O)CCCCC1 (stereo not drawn),inconclusive: 1.2 nM
22,O=C(CSc1nc(N2CCCCC2)nc(N2CCCCC2)n1)c1ccccc1,inconclusive: 1.6 nM

row,SMILES,max dye-equivalent concentration
1,COC(=O)c1ccc(CS(=O)(=O)c2ccccc2C)o1,inconclusive: 1.2 nM
2,NC(=O)c1ccsc1NC(=O)c1nc(-c2ccccc2)n(-c2ccccc2)n1,inconclusive: 1.2 nM
3,CC(CCc1ccccc1)NC(=O)C1CCN(S(=O)(=O)N2CCCCC2)CC1 (stereo not drawn),inconclusive: 1.4 nM
4,COCCN(C(=O)c1csnn1)C(C(=O)NC1CCCCC1)c1sccc1C (stereo not drawn),inconclusive: 1.2 nM
5,CC(C)(C)NC(=O)/C=N/O,inconclusive: 1.6 nM
6,COC(=O)CCCC(=O)O,inconclusive: 1.1 nM
7,O=C(Nc1ccc2c(c1)OCO2)C1CCN(C(=O)CSc2ncnc3ccccc23)CC1,inconclusive: 1.4 nM
8,CC(C)C(NS(=O)(=O)c1cccs1)C(=O)NCCN1CCN(c2ccccc2)CC1 (stereo not drawn),inconclusive: 1.2 nM
9,COc1ncc2nc(C)c(=O)n(C[C@H]3CCCO3)c2n1,inconclusive: 1.2 nM
10,Cn1c(=O)c2c(nc(CN3CCOCC3)n2CCc2ccccc2)n(C)c1=O,inconclusive: 1.3 nM
11,COCCn1c(=O)c(-c2ccc(Cl)cc2)nc2cnc(N3CCNCC3)nc21,inconclusive: 1.1 nM
12,Fc1ccc(CN2CCSCC2)cc1Br,inconclusive: 1.1 nM
13,O=C(CCCn1c(=O)c2sccc2n(CC(=O)OCc2ccccc2)c1=O)NCc1ccco1,inconclusive: 2.5 nM
14,CCOC(=O)CCNC(=O)c1ccccc1Br,inconclusive: 1.2 nM
15,Cc1nnc(SCc2ccccc2Cl)n1CC1CCCO1 (stereo not drawn),inconclusive: 1.1 nM
16,O=C(NCCCN1CCOCC1)c1ccc(CS(=O)(=O)c2cccc(C(F)(F)F)c2)o1,inconclusive: 1.3 nM
17,CN(C)C(=O)c1ccc(-c2nc(N(C)C)c3ccccc3n2)cc1,inactive
18,Cc1cc(C)c2c(SCc3ccc(Cl)cc3Cl)nc(N)nc2n1,inactive
19,COc1ccc(CCNS(=O)(=O)c2ccc3oc(C(=O)O)c(C)c3c2)cc1OC,inconclusive: 2.4 nM
20,CCn1c(C(C#N)/C(=N\S(=O)(=O)c2cccs2)c2ccccc2)nc2ccccc21 (stereo not drawn),inconclusive: 1.2 nM
21,COc1ccc(-c2c3c(=O)n(C)c(=O)n(C)c3cn2Cc2ccccn2)cc1,inconclusive: 1.1 nM
22,COC(=O)[C@H](C)NC(=O)NCc1ccco1,inconclusive: 1.2 nM

# Six compounds picked at random from the list so far:
row,SMILES,max dye-equivalent concentration
22,COC(=O)[C@H](C)NC(=O)NCc1ccco1,inconclusive: 1.2 nM
14,CCOC(=O)CCNC(=O)c1ccccc1Br,inconclusive: 1.2 nM
5,CC(C)(C)NC(=O)/C=N/O,inconclusive: 1.6 nM
13,O=C(CCCn1c(=O)c2sccc2n(CC(=O)OCc2ccccc2)c1=O)NCc1ccco1,inconclusive: 2.5 nM
15,Cc1nnc(SCc2ccccc2Cl)n1CC1CCCO1 (stereo not drawn),inconclusive: 1.1 nM
1,COC(=O)c1ccc(CS(=O)(=O)c2ccccc2C)o1,inconclusive: 1.2 nM

# (further entries)

row,SMILES,max dye-equivalent concentration
1,COc1ccccc1N(CN1CCCC1=O)C(=O)c1ccccc1F,inconclusive: 1.3 nM
2,CS(=O)(=O)c1ccc2nc(NC(NC(=O)c3ccco3)(C(F)(F)F)C(F)(F)F)sc2c1,inconclusive: 1.4 nM
3,Cc1cc2cc(CN(CCCO)S(=O)(=O)c3cccc4nsnc34)c(=O)[nH]c2cc1C,inconclusive: 1.2 nM
4,CN(C)CCSc1nc(N)c2c3c(sc2n1)COC(C)(C)C3,inconclusive: 1.7 nM
5,COCCn1c(CN2CCN(c3ccc(OC)cc3)CC2)nc2c1c(=O)n(C)c(=O)n2C,inconclusive: 1.4 nM
6,COc1ccc(N2C(=O)CSC23C(=O)Nc2ccccc23)cc1OC (stereo not drawn),inconclusive: 1.7 nM
7,COc1c2c(nc3ccccc13)O[C@@H]([C@@](C)(O)CO)C2,inconclusive: 1.2 nM
8,CCC1=NC(c2ccc(OC)cc2OC)N(O)C1(C)C (stereo not drawn),inconclusive: 1.6 nM
9,Cc1ccc(NC(=O)COC(=O)Cn2c(C)csc2=O)cc1,inconclusive: 1.5 nM
10,N#Cc1ccc(CN2CCCC3(CCN(C(=O)c4cccc(F)c4)CC3)C2)cc1,inactive
11,c1ccc2c(c1)nc1n2CCS1,inconclusive: 1.6 nM
12,CC1CN(c2nc3c(c(=O)n(Cc4ccc(Cl)c(Cl)c4)c(=O)n3C)n2C)CC(C)O1 (stereo not drawn),inconclusive: 1.1 nM
13,O=C(NCc1ccco1)c1ccc(COCC(F)(F)C(F)F)cc1,inconclusive: 2.2 nM
14,CCOC(=O)Cn1nnnc1CN(Cc1ccccc1)Cc1cc2cc(CC)ccc2[nH]c1=O,inactive
15,Cn1c(-c2ccccc2)c(CCO)c2ccccc21,inconclusive: 3.4 nM
16,O=C(O)[C@@H]1Cc2c([nH]c3ccccc23)[C@@H](CCCCO)N1,inactive
17,O=C(c1ccc(N2CCCC2=O)cc1)N1CCCCCC1,inconclusive: 1.7 nM
18,CN(C)c1ccc(N/C=C/C(=O)c2ccccc2)cc1,inactive
19,Cc1ccc([C@@]2(C)CC/C(=N/N=C3\CC[C@](C)(c4ccc(C)c(C)c4)c4cc(C)c(C)cc43)c3cc(C)c(C)cc32)cc1C,inactive
20,COc1cccc(C(=O)Nc2ccc(NC(C)=O)cn2)c1,inconclusive: 1.9 nM
21,NC(=O)Cc1c[nH]c2cccc(O)c12,inconclusive: 1.1 nM
22,O=C(Nc1cnc2ccccc2c1)c1ccco1,inconclusive: 1.4 nM

row,SMILES,max dye-equivalent concentration
1,CC(=O)c1c(O)c(C)c(O)c2c1OC1=CC(=O)[C@H](C(C)=O)C(=O)[C@]12C,inactive
2,Cc1ccc(S(=O)(=O)Nc2cc(C(=O)NCCN3CCCC3)ccc2N2CCCCC2)cc1,inconclusive: 1.1 nM
3,CCc1c(C)sc(NC(=O)OC)c1C(=O)N1CCCCC1,inconclusive: 1.6 nM
4,CC(C)C[C@H](N)C(=O)O,inactive
5,O=C(NCc1nc2ccccc2[nH]1)c1cc2ccccc2oc1=O,inconclusive: 1.3 nM
6,CC1(C)CC(=O)C2=C(C1)NC(=O)CC2c1ccccc1F (stereo not drawn),inconclusive: 1.1 nM
7,CC(C)NC(=O)N1CC[C@@]2(CCCN(C(=O)c3ccncc3)C2)C1,inconclusive: 1.1 nM
8,CCOCc1nnc(NC(=O)CSCc2ccccc2)s1,inconclusive: 1.4 nM
9,CCOC(=O)C1=CSC2=NS(=O)(=O)CCN12,inconclusive: 1.2 nM
10,CCn1c(-c2cc(OC)ccc2OC)csc1=Nc1c(C)n(C)n(-c2ccccc2)c1=O,inconclusive: 1.3 nM
11,O=c1c2[nH]c3ccccc3c2ncn1Cc1ccccn1,inconclusive: 1.1 nM
12,Cc1cc(C(=O)CSc2nnc(-c3ccc(Cl)cc3)n2CC2CCCO2)c(C)n1C (stereo not drawn),inconclusive: 1.6 nM
13,C1CCC2=NCCCN2CC1,inconclusive: 1.1 nM
14,CC(C)(C)OC(=O)NCCc1nnc(S(=O)(=O)Cc2ccc(Cl)cc2Cl)o1,inconclusive: 1.4 nM
15,O=C(c1ccco1)[C@@H]1[C@@H]2C(=O)N(c3ccc(Br)cc3)C(=O)[C@@H]2C2c3ccccc3C=CN21 (stereo partly drawn),inconclusive: 1.1 nM
16,O=C(O)CCCCCNC(=O)CCn1nnc2ccccc2c1=O,inconclusive: 1.2 nM
17,S=C1SCN(C2CCCCCCCCCCC2)CN1C1CCCCCCCCCCC1,inconclusive: 1.1 nM
18,O=C(CCNS(=O)(=O)c1cccc2nonc12)NCc1cccs1,inconclusive: 1.3 nM
19,O=C(CCCN1Cc2ccccc2C1)c1ccc(F)cc1,inconclusive: 1.8 nM
20,COc1cc(OC)c(C(=O)Nc2ncn[nH]2)cc1OC,inconclusive: 1.2 nM
21,NS(=O)(=O)c1cc2c(cc1Cl)N[C@@H]([C@@H]1C[C@@H]3C=C[C@H]1C3)NS2(=O)=O,inconclusive: 1.4 nM
22,CCOC(=O)c1c(NC(=O)c2nn(CC)cc2Br)c(C#N)nn1-c1ccccc1,inconclusive: 1.6 nM
